Values from PubChem BioAssay AID504791 (Drosophila RNAi Screening Center, 2011).

- Test: 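Genes whose knock-down strengthens or weakens small-RNA reporter silencing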 (primary screen)
- Cells: Drosophila S2-derived reporter cells
- Reagent: long dsRNA against Drosophila genes, about 150-250 ng dsRNA per well (siRNA assay); about 80-120 ng (miRNA assay)
- Timing: about 5 days (siRNA assay); about 4 days (miRNA assay)
- Challenge: copper sulfate induction of reporters: 25 µM (siRNA assay); 200 mM stated (miRNA assay), 1-2 days before reading
- Measured: 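Per-well ratio of Renilla over firefly light, expressed relative to that plate's average ratio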
- Rule for the call: 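a well was a first-pass pick when its plate-scaled ratio rose above 1.5 (siRNA assay) or 1.6 (miRNA assay), or dropped below 0.6; a gene counted only if two separate dsRNAs agreed on retest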
The deposit covers about 23,000 reagents; this is an unselected part of those with a known target gene and a result. Over the whole deposit, 199 (0.86%) got an active call. 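Plate-scaled ratios behind the calls are not deposited; printed light signals are raw; many rows marked increased or decreased are still called inactive.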 Entries without a mark were called inactive. The numbers tell different reagents against one gene apart. A plus sign joins genes that one reagent is predicted to hit. Reagent sequences are not shown. The record does not give: the direction of the score.

target | reagent no. | stable assay Renilla, run 1 (luminescence) | stable assay firefly, run 1 (luminescence)
CG43658 (GeneID 32729) | 1 | 5975 | 5.26e5
CG42240 (GeneID 7354471) | 1 | 3039 | 2.73e5
CG7131 (GeneID 42197) | 1 | 7732 | 3.74e5
Adk3 (GeneID 44750) | 1 | 30369 | 1.60e6
spartin (GeneID 40582) | 1 | 6950 | 4.71e5
CG9682 (GeneID 43602) | 1 | 6706 | 3.63e5
Obp59a (GeneID 37605) | 1 | 6195 | 3.65e5
CG17198 + CG17197 | 1 | 7878 | 3.85e5
CG17198 + CG17197 | 2 | 7850 | 4.72e5
kappaTry (GeneID 36215) | 1 | 6000 | 2.91e5
odd (GeneID 33583) | 1 | 6019 | 2.32e5
odd (GeneID 33583) | 2 | 4671 | 3.42e5
CG7453 (GeneID 32903) | 1 | 6431 | 4.74e5
Vha100-2 (GeneID 42216) | 1 | 9523 | 3.98e5

Next part (2 carried over from the part before).
target | reagent no. | stable assay Renilla, run 1 (luminescence) | stable assay firefly, run 1 (luminescence)
CG7453 (GeneID 32903) | 1 | 6431 | 4.74e5
Vha100-2 (GeneID 42216) | 1 | 9523 | 3.98e5
CG30270 (GeneID 251324) | 1 | 4240 | 3.98e5
Tango6 (GeneID 35155) | 1 | 10831 | 1.06e6
CG1113 (GeneID 40629) | 1 | 5679 | 4.31e5
CG2224 (GeneID 43617) | 1 | 6771 | 3.87e5
Prm (GeneID 39002) | 1 | 4403 | 3.27e5
Prm (GeneID 39002) | 2 | 4423 | 3.32e5
Prm (GeneID 39002) | 3 | 8110 | 4.77e5
CG4021 (GeneID 37484) | 1 | 6514 | 3.66e5
Sras (GeneID 44002) | 1 | 5876 | 4.45e5
CG5608 (GeneID 41543) | 1 | 7554 | 4.60e5
tal-1A + tal-2A + tal-AA + 1 more | 1 | 4743 | 3.81e5
tim (GeneID 33571) | 1 | 23592 | 3.78e5
CG5569 (GeneID 37783) | 1 | 6042 | 3.55e5
Tsp2A (GeneID 31080) | 1 | 5402 | 3.20e5
CG6923 (GeneID 41420) | 1 | 7914 | 4.10e5
Cyp311a1 (GeneID 32170) | 1 | 4335 | 3.15e5
CG5498 (GeneID 40250) | 1 | 6474 | 2.76e5
rho (GeneID 38168) | 1 | 5459 | 3.65e5
Gabat (GeneID 40188) | 1 | 6700 | 3.40e5
Art6 (GeneID 41699) | 1 | 7983 | 4.83e5
